Primary screen of a compound library

Mtb cholesterol medium: 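Growth of Mycobacterium tuberculosis over 4 days (cholesterol / DPPC medium with tyloxapol); the read-out is not stated. Compounds at 50 µM. The record gives no direction; compounds that gave an IC50 in retests scored well above the rest, so higher reads as more growth inhibition. Size under these conditions: about 69,000 compounds, about 370 of them at 50% or above in at least one test.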
Mtb glucose medium: 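Phenotypic screen: M. tuberculosis growth, glucose 7H9 medium, 3 days; the read-out is not stated. Concentration: 50 µM. Direction is inferred from retests: higher values go with more growth inhibition. About 69,000 compounds were tested under these conditions; 1.1% (about 760) showed 50% or more at least once.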

Results are given as percent effect. The controls that fix the scale are not given in the record; negative values are as filed. Compounds were drawn at random from those tested, without regard to their results. Two or more numbers in one place are separate tests of the same structure; such repeats can differ widely.

| structure | Mtb cholesterol medium | Mtb glucose medium |
|---|---|---|
| `CCC1CN(CC(=O)NCCOC)CCO1` (stereo unspecified) | -8.471 | 12.31 |
| `CN1CCC(CCNC(=O)N2CCN(Cc3ccon3)CC2)CC1` | 0.8976 & -8.645 | 6.113 |
| `Cc1ccc(CNCc2c[nH]nc2C(C)(C)C)c(OC2CCOC2)c1` (stereo unspecified) | 0.3043 | 16.6 & 6.289 |
| `Cc1ccc(CN(C)C(=O)CN2CCCC2c2cnn(C)c2)o1` (stereo unspecified) | -20.5 | -32.73 & -16.13 |
| `COc1ccccc1CC(=O)NC(CC(=O)O)c1ccc(F)cc1` (stereo unspecified) | -53.96 & 1.198 | 11.92 |
| `O=C1CC(N(C(=O)CCc2c[nH]c3ccccc23)C2CC2)C(=O)N1` (stereo unspecified) | -21.12 | 16.34 |
| `O=C(O)C(F)(F)F.[H][C@@]12CN(C(=O)Cc3ccccc3)C[C@]1([H])OCCN2CC1CCCO1` (stereo partly specified) | 4.743 | -17.12 |
| `c1cnnc(NCC2CN(Cc3ccon3)CCO2)c1` (stereo unspecified) | -16.41 | 10.42 |
| `O=C(O)C(F)(F)F.[H][C@@]12COC[C@]1(CNC(=O)c1cscn1)CN(Cc1nccs1)C2` | -18.77 | -23.03 |
| `CC(C)(CNC(=O)NCCOc1cccc(F)c1)C(N)=O` | 7.313 | 7.153 |
| `Cc1nn(C)c(C)c1-c1cc(-c2cc(CC(=O)O)cs2)nc(N)c1C#N` | 23.11 | -23.05 |
| `Cc1ccc(CN(C)CC(=O)NC2(C)CCS(=O)(=O)C2)cc1` (stereo unspecified) | -27.36 | -10.19 |
| `CC(C)[C@H]1CN(C2Cc3ccccc3C2)C[C@@H]1NS(C)(=O)=O` | 3.768 | -12.26 |
| `CN(C)Cc1ccnc(C2CN(Cc3c(F)cccc3F)CCO2)n1` (stereo unspecified) | 17.36 | 6.436 |
| `CCOCCn1nc(C2CCNCC2)n(Cc2ccccc2)c1=O` | -36.44 | -7.157 |
| `CN([C@@H]1CCC[C@@H](n2ccnc2)[C@@H]1O)S(=O)(=O)c1cn(C)cn1` | -10.81 | 11.55 |
| `N#Cc1ccc(S(=O)(=O)NC(=O)C2CC2)c(C(F)(F)F)c1` | -8.882 | 7.277 |
| `Cc1cc(Nc2nc(C)cc(C)n2)cc(C2CCCN2)n1` (stereo unspecified) | 23.26 & 30.98 | 30.11 |
| `Cc1cc(-c2nn(C)c(Cl)c2CN2Cc3ccccc3C(O)C2)no1` (stereo unspecified) | -5.494 | -9.315 |
| `CC(C1CCN(C(=O)c2coc(CN3CCOCC3)c2)CC1)N(C)C` (stereo unspecified) | 4.228 | -31.26 |
| `Cc1noc(C)c1CCCNC(=O)C1CCCN(C(=O)C2CC2)C1` (stereo unspecified) | -1.723 | -30.56 |
| `CCn1nc(CNC(=O)C2CC(=O)N(C3CCCC3)C2)c2ccccc21` (stereo unspecified) | -1.903 | -16.13 |
| `COc1ccc(CN(C)C2CSCCSC2)c2cccnc12` | 6.202 | 29.2 |
| `CCN1N=C(C(=O)N2CCCC(c3nc(C)cs3)C2)CCC1=O` (stereo unspecified) | 4.038 | 13.35 |
| `CCOC(=O)c1cnn(C2CCN(C(=O)CC3C=CCC3)CC2)c1N` (stereo unspecified) | -0.298 | 5.152 |
| `Oc1cc(-c2ccsc2)nc(C2CCN(Cc3ccncc3)CC2)n1` | -2.319 | 5.336 |
| `CNC(=O)c1ccc(C2CN(C(=O)COC)CCO2)nc1` (stereo unspecified) | 0.9054 | 3.899 |
| `O=C(O)C(F)(F)F.[H][C@@]12CCN(Cc3nccs3)[C@]1([H])CC[C@H](C(=O)N1CCCCO1)O2` | -10.81 | 0.6941 & 0.2209 |
| `CC(=O)N1CCOC(c2ccnc(N(C)C)n2)C1` (stereo unspecified) | -5.055 & -9.561 | 0.3855 |
| `Cc1ccc(NC2CCN(C(=O)Cc3c(C)noc3C)CC2)nn1` | -16.26 | -16.67 |
| `CC(C)c1nn(C)c(N(C)C)c1CNCC(O)COc1ccccc1` (stereo unspecified) | 9.962 | 2.662 |
| `CSCCc1nc(-c2ccc3c(c2)OCO3)n(C)n1` | 13.5 | 4.776 & 35.23 |
| `COc1cccc(CNc2c(C)cnc3c2c(=O)n(C)c(=O)n3C)c1` | -56.64 | -41.54 & 1.515 |
| `Cn1cc(C(=O)Nc2cccc(-c3ccc4c(c3)CCO4)n2)ccc1=O` | -12.58 | -59.08 |
| `Cc1nn(C)c(C)c1C1COCCN1C(=O)NC1CC1` (stereo unspecified) | -4.021 | 13.36 & 14.23 |
| `NC(=O)N1CCCC(C(=O)NCCOc2ccc(F)cc2F)C1` (stereo unspecified) | -1.913 | 4.436 & -0.2766 |
| `Cc1nn(C)c(C)c1CN(C)c1nc(C2CC2)nc2c(C)nn(C)c12` | -17.28 | -6.426 |
| `O=C(c1cccc(O)n1)N1CCC(O)(CN2CCC(F)(F)CC2)C1` (stereo unspecified) | -15.64 | -30.69 |
| `CC(O)(CNC(=O)c1cccnc1-n1cccn1)c1ccco1` (stereo unspecified) | 6.317 | 33.36 |
| `Cc1cc(C)c2[nH]c(CN3CCCC(N4CCOCC4)C3)cc(=O)c2c1` (stereo unspecified) | -23.39 | -14.12 |
| `[H][C@@]12CS(=O)(=O)C[C@]1([H])N(S(=O)(=O)N1CCCC1)CCN2CC` | -26 | -3.561 |
| `O=C1CCCN1Cc1noc(-c2ccc(Cl)cc2)n1` | -13.17 | 0.7667 |
| `CC1c2ncc(CNC(=O)C3CC3)n2CCN1Cc1nccs1.O=C(O)C(F)(F)F` (stereo unspecified) | -13.53 | 10.01 |
| `O=S(=O)(CCCN1CCCC1Cn1cccn1)c1ccccc1` (stereo unspecified) | -1.404 | 18.59 |
| `CCn1ccnc1CN1CCCN(C(=O)c2sccc2C#N)CC1` | -8.008 | -10.79 |
| `O=C(c1ccnnc1)N1CC[C@H](OCC2CC2)[C@@H]1Cc1ccncc1` | 13.05 | 9.371 & -2.448 |
| `Cc1nc(CNCC2CN(C3CC3)CCO2)cs1` (stereo unspecified) | -0.2031 | -16.44 |
| `CCNC(=O)CN1CCC(c2cc(OC)cc(OC)c2)C1` (stereo unspecified) | -7.381 | 5.292 |
| `COc1cc(Br)c(CNc2ccn(CCC(N)=O)n2)cc1OC` | -6.998 | 2.781 & -34.61 |
| `CCNC(=O)[C@@H]1C[C@H](NC(=O)c2ccccc2C#N)CN1CCCSC` | 3.954 | -13.03 |

Repeated from the top, 5 entries:

structure,Mtb cholesterol medium,Mtb glucose medium
CCC1CN(CC(=O)NCCOC)CCO1 (stereo unspecified),-8.471,12.31
CN1CCC(CCNC(=O)N2CCN(Cc3ccon3)CC2)CC1,0.8976 & -8.645,6.113
Cc1ccc(CNCc2c[nH]nc2C(C)(C)C)c(OC2CCOC2)c1 (stereo unspecified),0.3043,16.6 & 6.289
Cc1ccc(CN(C)C(=O)CN2CCCC2c2cnn(C)c2)o1 (stereo unspecified),-20.5,-32.73 & -16.13
COc1ccccc1CC(=O)NC(CC(=O)O)c1ccc(F)cc1 (stereo unspecified),-53.96 & 1.198,11.92

Source: ChEMBL document CHEMBL3988442, “University of Dundee, Small-Polar-MMV Screening Library” (2021).